Data taken from ChEMBL document CHEMBL3988442, “University of Dundee, Small-Polar-MMV Screening Library” (2021).

The chains behind the UniProt entries cited, without tags or fusion partners. Residues count along the entry.
UniProt Q4DA54, 1-478: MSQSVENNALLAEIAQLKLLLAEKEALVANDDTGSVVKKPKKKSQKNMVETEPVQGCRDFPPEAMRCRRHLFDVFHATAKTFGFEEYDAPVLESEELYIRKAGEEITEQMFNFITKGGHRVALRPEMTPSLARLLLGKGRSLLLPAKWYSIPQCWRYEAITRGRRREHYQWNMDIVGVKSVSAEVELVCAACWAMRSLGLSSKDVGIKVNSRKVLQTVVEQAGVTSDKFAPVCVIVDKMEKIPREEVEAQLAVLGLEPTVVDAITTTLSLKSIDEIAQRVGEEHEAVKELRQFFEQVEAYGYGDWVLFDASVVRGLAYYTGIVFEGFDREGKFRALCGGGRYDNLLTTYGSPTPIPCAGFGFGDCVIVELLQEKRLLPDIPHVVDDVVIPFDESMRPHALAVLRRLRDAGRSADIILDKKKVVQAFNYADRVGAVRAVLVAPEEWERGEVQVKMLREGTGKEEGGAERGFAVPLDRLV
UniProt A4I591, 1-473: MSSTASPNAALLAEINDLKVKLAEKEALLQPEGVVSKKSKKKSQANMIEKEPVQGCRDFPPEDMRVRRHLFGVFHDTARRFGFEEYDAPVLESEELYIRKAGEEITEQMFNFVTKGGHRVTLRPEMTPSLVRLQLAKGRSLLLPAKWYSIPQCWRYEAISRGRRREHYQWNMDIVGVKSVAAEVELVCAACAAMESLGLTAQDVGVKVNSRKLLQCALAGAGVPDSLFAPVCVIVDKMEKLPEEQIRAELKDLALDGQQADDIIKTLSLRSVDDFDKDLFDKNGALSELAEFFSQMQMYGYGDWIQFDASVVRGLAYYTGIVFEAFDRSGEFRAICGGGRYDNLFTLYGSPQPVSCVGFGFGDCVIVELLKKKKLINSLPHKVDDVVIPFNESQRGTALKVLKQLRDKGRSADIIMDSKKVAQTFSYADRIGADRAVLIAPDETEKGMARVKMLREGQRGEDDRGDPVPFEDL

T. brucei: 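Whole-parasite assay of Trypanosoma brucei over 72 hours; the read-out is not stated. Concentration: 30 µM. The record gives no direction; compounds that gave an IC50 in retests scored well above the rest, so higher reads as stronger inhibition. Values scatter widely below zero; nearly all retest evidence comes from the higher of the two concentrations used. Of about 64,000 compounds tested this way, about 940 (1.5%) reached 50% or more in at least one test.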
TcHisRS: 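Enzyme assay of histidyl-tRNA synthetase; the read-out is not stated. Target: Histidine-tRNA ligase, Trypanosoma cruzi CL Brener (UniProt Q4DA54). Compounds at 30 µM. Higher reads as stronger inhibition (inferred: compounds with an IC50 in retests scored well above the rest). Size under these conditions: about 69,000 compounds, about 31 of them at 50% or above in at least one test.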
LiHisRS: 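Histidine-tRNA ligase, Leishmania infantum (UniProt A4I591). Enzyme assay of histidyl-tRNA synthetase; the read-out is not stated. Compounds at 30 µM. Higher reads as stronger inhibition (inferred: compounds with an IC50 in retests scored well above the rest). The assay is labelled LdHisRS but filed under L. infantum. Size under these conditions: about 69,000 compounds, about 410 of them at 50% or above in at least one test.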

The filed quantity is “Percent Effect” (%). How 0% and 100% were set is not recorded. Most values in the screen are low, and negative values occur. The compounds are a random part of those screened. A dash means the value is not listed here; it may have been measured.

| SMILES | T. brucei | TcHisRS | LiHisRS |
|---|---|---|---|
| `COCc1ccccc1C(=O)N(C)Cc1ncc(C)c(OC)c1C` | -5.71% | 3.361% | -3.306% |
| `CC(Cn1cncn1)NCCN1CCc2ccccc21` (stereo not given) | -28.3% | 7.216% | 5.714% |
| `O=C(O)C(F)(F)F.O=C(O)C(F)(F)F.c1cncc(OCc2nnn3c2CN(Cc2ccsc2)CCC3)c1` | 16.55% | - | - |
| `Cc1ccccc1CSc1nc(N)cc(N2C[C@H](O)[C@@H](N(C)C)C2)n1` | 11.43% | 2.542% | 20.75% |
| `O=C(O)c1nnn(-c2ccc(OC(F)(F)F)cc2)c1-c1ccncc1` | 11.91% | 3.261% | 28.57% |
| `COc1ccc(OC)c(CN(Cc2ccco2)Cc2[nH]cnc2C)c1` | - | 4.286% | 6.711% |
| `COc1ccc2cc(C3CN(C(=O)CN4CCCC4)CCO3)ccc2c1` (stereo not given) | 35.3% | -14.17% | 16.98% |
| `Cc1nc(CN(C)C2CCN(Cc3sc(C)nc3C)C2)no1` (stereo not given) | 16.36% | -4.545% | 13.64% |
| `CC(=O)N1N=C(c2ccco2)OC1C(=O)NCCc1ccc(F)cc1` (stereo not given) | 19.08% | 9.091% | 3.96% |
| `O=C1[C@H]2CN(Cc3cccs3)C[C@H]2CN1CCN1CCCC1` | - | 0.9709% | 5.769% |
| `Cn1c(Cn2cccn2)nnc1C1CCN(Cc2cccnc2)CC1` | -10.04% | -1.339% | 23.46% |
| `Cc1cnc(N2CCOCC3(CCN(c4ccccn4)C3)C2)nc1.O=C(O)C(F)(F)F.O=C(O)C(F)(F)F` (stereo not given) | -35.16% | - | - |
| `COCCCS(=O)(=O)N1CCN(Cc2cccn2C)CC1` | 1.643% | -4.762% | 0% |
| `CC(C)CCN1Cc2c(C(=O)O)ncn2-c2ccccc2S1(=O)=O` | - | 9.392% | 9.023% |
| `CCCOC1CCCN(c2ncnc3c2CCN(C(=O)C2CC2)C3)C1` (stereo not given) | -18.27% | 7.143% | 15.5% |
| `CNC(=O)CN1C(=O)CCC12CCCN(Cc1ccccn1)C2` (stereo not given) | -20.83% | -1.942% | 0% |
| `CN(C)Cc1nnc2n1CCN(Cc1ccccn1)CC2` | 6.088% | 9.091% | 0% |
| `Cc1cc(CN(C)C(=O)C2CCS(=O)(=O)C2)no1` (stereo not given) | 1.524% | -3.396% | -8% |
| `CN(C)c1cc(C(=O)N2CCCCCC2)ccn1` | 10.86% | 4.399% | -0.9259% |
| `CC(Cn1cccn1)NC(=O)NCc1ccc(S(N)(=O)=O)cc1` (stereo not given) | -14.27% | -2.642% | 16% |
| `Cc1ccc(S(=O)(=O)N2C[C@H]3C[C@H](NC(=O)c4cnn(C)c4)[C@H]3C2)cc1` | - | 0.7491% | 4% |
| `COc1cc(NC(=O)c2cccc(N(C)C)c2)cc(OC)c1` | -23.35% | 7.843% | 13.33% |
| `N#Cc1ccc(OCC(O)CN2CCN(c3nccs3)CC2)cc1` (stereo not given) | -30.52% | 11.67% | 2.679% |
| `Cn1nnc2c1CCN(C(=O)C1CCC1)C2COCCN1CCCC1.O=C(O)C(F)(F)F` (stereo not given) | -16.3% | - | - |
| `Cc1cnn(CC2CCCN2C(=O)c2cc(C)nc3[nH]nc(C)c23)c1` (stereo not given) | - | 1.425% | 10.26% |
| `Cc1nc(Nc2nnc(C)s2)cc(C2CCCN2C2CCCC2)n1` (stereo not given) | 16.23% | 0.7491% | 4% |
| `N#Cc1cccc(Cl)c1NCCCc1nc(=O)[nH][nH]1` | -28.19% | 6.579% | 12.5% |
| `O=C(NCCNc1ccccn1)N1CCSCC1` | -32.01% | 0.7519% | 9.524% |
| `Cc1cnc(CN2CCCC(c3cc(C(N)=O)[nH]n3)C2)o1` (stereo not given) | -9.224% | -0.7519% | 2.381% |
| `CN(C)CC1CN(c2ccc(C#N)cn2)CCO1` (stereo not given) | 2.036% | -1.515% | 10.61% |
| `c1ccc(-n2ncc(CNCC3CCCN3c3cccnn3)n2)cc1` (stereo not given) | 17.21% | 15.91% | 65.15% |
| `CS(=O)(=O)NCCNCc1ccc(Br)s1.Cl` | -9.608% | - | - |
| `CCN(CC(=O)NC)C(=O)c1sc(Cc2ccccc2)nc1C` | -53.6% | -3.704% | 5.882% |
| `O=c1[nH]nc2c(S(=O)(=O)N3CCCCCC3)cccn12` | -25.26% | 15% | 21.74% |
| `Cc1ccnc(NC(=O)c2ccc(F)c(S(=O)(=O)NC3CC3)c2)c1` | 3.016% | 6.077% | 6.218% |
| `CN(C)C(=O)Cn1cc(C(=O)NCCc2cccc(Cl)c2Cl)nn1` | -32.82% | 6.14% | 10.71% |
| `Cc1nn2c(NC(=O)CSc3nccn3C)csc2nc1=O` | -27.98% | -1.98% | -9.783% |
| `CCc1cnc(NCC(c2cccnc2)N2CCOCC2)nc1` (stereo not given) | -31.89% | 6.383% | 28.12% |
| `Cc1cc(=O)n(CCNS(=O)(=O)c2ccccc2)cn1` | -48.47% | 10% | 6.522% |
| `CC(C)c1nn(C)c(Cl)c1CNCC(=O)N1CCN(C)CC1` | - | 11.06% | 8.235% |
| `Cc1nn(C)c(N2CCCN(C)CC2)c1CNC(=O)CCC(C)C` | -5.357% | -4.867% | 6.195% |
| `[H][C@]12CC[C@]([H])(CN(Cc3[nH]cnc3C)C1)N(C(=O)CCn1cncn1)C2` | -36.28% | - | - |
| `CCc1nc(CN2CCCN(C(=O)c3cn[nH]c3C)CC2)cs1` | 24.05% | 0.8333% | 16.98% |
| `O=C(O)C(F)(F)F.c1csc(CN2CCc3onc(Cn4cccc4)c3C2)c1` | -45.84% | - | - |
| `O=C(O)C(F)(F)F.[H][C@@]12CCN(c3cccc(F)c3)C[C@@]1([H])O[C@@H](C(=O)NCc1ccco1)C2` | 0.588% | - | - |
| `CC1(C)CNC(=O)c2nc(C3CCN(C(=O)C4CC4)CC3)[nH]c2C1` | 23.21% | 5.844% | 12.9% |
| `Cc1nc(CNC(=O)c2cc(Cn3ccnc3C(C)C)[nH]n2)sc1C` | -5.343% | 1.205% | 15.38% |
| `Cc1nc(C)n(CC2CN(Cc3cscn3)CCO2)n1` (stereo not given) | - | 7.647% | 18.35% |

The last 4 entries again:

| SMILES | T. brucei | TcHisRS | LiHisRS |
|---|---|---|---|
| `O=C(O)C(F)(F)F.[H][C@@]12CCN(c3cccc(F)c3)C[C@@]1([H])O[C@@H](C(=O)NCc1ccco1)C2` | 0.588% | - | - |
| `CC1(C)CNC(=O)c2nc(C3CCN(C(=O)C4CC4)CC3)[nH]c2C1` | 23.21% | 5.844% | 12.9% |
| `Cc1nc(CNC(=O)c2cc(Cn3ccnc3C(C)C)[nH]n2)sc1C` | -5.343% | 1.205% | 15.38% |
| `Cc1nc(C)n(CC2CN(Cc3cscn3)CCO2)n1` (stereo not given) | - | 7.647% | 18.35% |